In paper PMC10163288:
The other results are listed elsewhere or left out.

B1: il2ra_site2_2erj_sap_26_mot_HHH_b1_00714_af2_000000008_0001_20_37_H_._22aa8d8ad8dce7f663ea8fa348a52261_0001_af2_0001_0000400012_0000001_0_0001 (protein)
chain: SSSSSHEEEVERLLEEAREAYERGDLHEVYRLAAEAMHVASKHNDDELLQKIAEFIEELSSSSSS
B2: il2ra_site2_3nfp_sap_28_mot_HHH_b1_03574_000000239_0001_1_18_H_._2f10428d1ec81e89baed431bc543484b_0001_1_0001_0001100038_0000001_0_0001 (protein)
chain: SSSSDEEEREVRELLEEIQKLIEEGDPEKVEEALRRVANLVFEIGNFELFAEVAELLLEIASSSS
B3: il2ra_site1_3nfp_sap_11_mot_1dfc56a8f07a39e834a69883c800ee5d_0001_1_af2_000000099_0001_1_15_H_._HHH_b1_01993_0001_0000100002_0000001_0_0001_af2pred_0001_1_af2pr … (protein)
chain: SSSSSSSQELLRFVAELAEELGLSHEQSRELMHLLAKLLLRGISPEEIEEILKEYAERLSSSSSS
B4: il2ra_site2_3nfp_sap_20_mot_HHH_b2_05281_000000198_0001_39_56_H_._c58d1d15de78a75bbff7b234e0f533b8_0001_af2_0001_0000200013_0000001_1_0001 (protein)
chain: SSSSDKVEQLEEAVKRLIKEIPDPEDRRKLEELLEELEEEGDPELAFELFALAAELLYKYSSSSS
B5: il2ra_site1_2b5i_sap_20_mot_HHH_b2_03886_000000131_0001_1_17_H_._092036b618aed672410521e3cd842e06_0001_1_0001_0000100001_0000001_0_0001_af2pred_dldesign_0_af2pr … (protein)
chain: SSSSSDLKAEVLKLIEKARELAAAGKRREALELLEEAYKLADKLNDDALLDEIEALARELSSSSS
B6: il2ra_site2_3nfp_sap_32_mot_HHH_b1_00548_000000069_0001_37_55_H_._871c942bffecba610830e7017620cd14_0001_1_af2_0001_0000400017_0000001_0_0001 (protein)
chain: SSSSSEEVKELLEELKELLEKNDEERFRELVRRIAHLVFELNDEEAFYRLAELLLLFVRRRSSSS
B7: il2ra_site2_2erj_normal_mot_HHH_b1_00376_000000139_0001_38_52_H_._ad785faee86527911bc0efce130472f5_0001_0001_0000400024_0000001_0 (protein)
chain: SEEEEEELLREAGLSPAEIRFFLRQVQLLAERFNVPPEEAIKLLLEWAERLGNDNLERAAEVLLK
B8: il2ra_site1_1z92_normal_mot_HHH_b2_04375_000000267_0001_42_56_H_._HHH_b2_04498_0001_0000200019_0000001_0_af2pred_0001_af2pred_1 (protein)
chain: SSSSSDEEERIVEELIEELGGSEEVKRAAEKDAEIARKQGISEENIRKALERAIRFDIELSSSSS
B9: il2ra_site1_2b5i_sap_20_mot_6169ea741eebcbe25a7a19b2986e1e54_0001_1_af2_000000158_0001_1_13_H_._15a03ae7649ebbac21f4683df9edff8e_0001_af2_0001_0000500038_000000 … (protein)
chain: SSSSSSSLEEQVEELIELAEKEEDPLERERILKLARLVAKKAKDPELVARVEAKRAELSSSSSSS
B10: il2ra_site2_3nfp_sap_12_mot_968ffe68aa11d68c04d2634bf871f227_0001_1_af2_000000211_0001_1_14_H_._ems_3hM_1371_0001_0000100004_0000001_0_0001 (protein)
chain: SEVEELVERALEENDPRDLFAALADLQNLLDIPPREAREILLEIIEQILKVPPEEAEELLQKALQ

Target: il2ra, P01589
Assay: yeast display titration

Apparent Kd, inactive:
B1 no binding seen
B2 no binding seen
B3 no binding seen
B4 no binding seen
B5 no binding seen
B6 no binding seen
B7 no binding seen
B8 no binding seen
B9 no binding seen
B10 no binding seen
